Measurements reported in article doi:10.1101/341420.
Results are given in words; binding and its absence hold for the method and conditions named. In cells and extracts the contact can be indirect. These calls come from enrichment with a bait or labelling near it, and not all partners need be listed.

By UniProt entry, the sequences of proteins in these tests, tags left out.
UniProt O95714: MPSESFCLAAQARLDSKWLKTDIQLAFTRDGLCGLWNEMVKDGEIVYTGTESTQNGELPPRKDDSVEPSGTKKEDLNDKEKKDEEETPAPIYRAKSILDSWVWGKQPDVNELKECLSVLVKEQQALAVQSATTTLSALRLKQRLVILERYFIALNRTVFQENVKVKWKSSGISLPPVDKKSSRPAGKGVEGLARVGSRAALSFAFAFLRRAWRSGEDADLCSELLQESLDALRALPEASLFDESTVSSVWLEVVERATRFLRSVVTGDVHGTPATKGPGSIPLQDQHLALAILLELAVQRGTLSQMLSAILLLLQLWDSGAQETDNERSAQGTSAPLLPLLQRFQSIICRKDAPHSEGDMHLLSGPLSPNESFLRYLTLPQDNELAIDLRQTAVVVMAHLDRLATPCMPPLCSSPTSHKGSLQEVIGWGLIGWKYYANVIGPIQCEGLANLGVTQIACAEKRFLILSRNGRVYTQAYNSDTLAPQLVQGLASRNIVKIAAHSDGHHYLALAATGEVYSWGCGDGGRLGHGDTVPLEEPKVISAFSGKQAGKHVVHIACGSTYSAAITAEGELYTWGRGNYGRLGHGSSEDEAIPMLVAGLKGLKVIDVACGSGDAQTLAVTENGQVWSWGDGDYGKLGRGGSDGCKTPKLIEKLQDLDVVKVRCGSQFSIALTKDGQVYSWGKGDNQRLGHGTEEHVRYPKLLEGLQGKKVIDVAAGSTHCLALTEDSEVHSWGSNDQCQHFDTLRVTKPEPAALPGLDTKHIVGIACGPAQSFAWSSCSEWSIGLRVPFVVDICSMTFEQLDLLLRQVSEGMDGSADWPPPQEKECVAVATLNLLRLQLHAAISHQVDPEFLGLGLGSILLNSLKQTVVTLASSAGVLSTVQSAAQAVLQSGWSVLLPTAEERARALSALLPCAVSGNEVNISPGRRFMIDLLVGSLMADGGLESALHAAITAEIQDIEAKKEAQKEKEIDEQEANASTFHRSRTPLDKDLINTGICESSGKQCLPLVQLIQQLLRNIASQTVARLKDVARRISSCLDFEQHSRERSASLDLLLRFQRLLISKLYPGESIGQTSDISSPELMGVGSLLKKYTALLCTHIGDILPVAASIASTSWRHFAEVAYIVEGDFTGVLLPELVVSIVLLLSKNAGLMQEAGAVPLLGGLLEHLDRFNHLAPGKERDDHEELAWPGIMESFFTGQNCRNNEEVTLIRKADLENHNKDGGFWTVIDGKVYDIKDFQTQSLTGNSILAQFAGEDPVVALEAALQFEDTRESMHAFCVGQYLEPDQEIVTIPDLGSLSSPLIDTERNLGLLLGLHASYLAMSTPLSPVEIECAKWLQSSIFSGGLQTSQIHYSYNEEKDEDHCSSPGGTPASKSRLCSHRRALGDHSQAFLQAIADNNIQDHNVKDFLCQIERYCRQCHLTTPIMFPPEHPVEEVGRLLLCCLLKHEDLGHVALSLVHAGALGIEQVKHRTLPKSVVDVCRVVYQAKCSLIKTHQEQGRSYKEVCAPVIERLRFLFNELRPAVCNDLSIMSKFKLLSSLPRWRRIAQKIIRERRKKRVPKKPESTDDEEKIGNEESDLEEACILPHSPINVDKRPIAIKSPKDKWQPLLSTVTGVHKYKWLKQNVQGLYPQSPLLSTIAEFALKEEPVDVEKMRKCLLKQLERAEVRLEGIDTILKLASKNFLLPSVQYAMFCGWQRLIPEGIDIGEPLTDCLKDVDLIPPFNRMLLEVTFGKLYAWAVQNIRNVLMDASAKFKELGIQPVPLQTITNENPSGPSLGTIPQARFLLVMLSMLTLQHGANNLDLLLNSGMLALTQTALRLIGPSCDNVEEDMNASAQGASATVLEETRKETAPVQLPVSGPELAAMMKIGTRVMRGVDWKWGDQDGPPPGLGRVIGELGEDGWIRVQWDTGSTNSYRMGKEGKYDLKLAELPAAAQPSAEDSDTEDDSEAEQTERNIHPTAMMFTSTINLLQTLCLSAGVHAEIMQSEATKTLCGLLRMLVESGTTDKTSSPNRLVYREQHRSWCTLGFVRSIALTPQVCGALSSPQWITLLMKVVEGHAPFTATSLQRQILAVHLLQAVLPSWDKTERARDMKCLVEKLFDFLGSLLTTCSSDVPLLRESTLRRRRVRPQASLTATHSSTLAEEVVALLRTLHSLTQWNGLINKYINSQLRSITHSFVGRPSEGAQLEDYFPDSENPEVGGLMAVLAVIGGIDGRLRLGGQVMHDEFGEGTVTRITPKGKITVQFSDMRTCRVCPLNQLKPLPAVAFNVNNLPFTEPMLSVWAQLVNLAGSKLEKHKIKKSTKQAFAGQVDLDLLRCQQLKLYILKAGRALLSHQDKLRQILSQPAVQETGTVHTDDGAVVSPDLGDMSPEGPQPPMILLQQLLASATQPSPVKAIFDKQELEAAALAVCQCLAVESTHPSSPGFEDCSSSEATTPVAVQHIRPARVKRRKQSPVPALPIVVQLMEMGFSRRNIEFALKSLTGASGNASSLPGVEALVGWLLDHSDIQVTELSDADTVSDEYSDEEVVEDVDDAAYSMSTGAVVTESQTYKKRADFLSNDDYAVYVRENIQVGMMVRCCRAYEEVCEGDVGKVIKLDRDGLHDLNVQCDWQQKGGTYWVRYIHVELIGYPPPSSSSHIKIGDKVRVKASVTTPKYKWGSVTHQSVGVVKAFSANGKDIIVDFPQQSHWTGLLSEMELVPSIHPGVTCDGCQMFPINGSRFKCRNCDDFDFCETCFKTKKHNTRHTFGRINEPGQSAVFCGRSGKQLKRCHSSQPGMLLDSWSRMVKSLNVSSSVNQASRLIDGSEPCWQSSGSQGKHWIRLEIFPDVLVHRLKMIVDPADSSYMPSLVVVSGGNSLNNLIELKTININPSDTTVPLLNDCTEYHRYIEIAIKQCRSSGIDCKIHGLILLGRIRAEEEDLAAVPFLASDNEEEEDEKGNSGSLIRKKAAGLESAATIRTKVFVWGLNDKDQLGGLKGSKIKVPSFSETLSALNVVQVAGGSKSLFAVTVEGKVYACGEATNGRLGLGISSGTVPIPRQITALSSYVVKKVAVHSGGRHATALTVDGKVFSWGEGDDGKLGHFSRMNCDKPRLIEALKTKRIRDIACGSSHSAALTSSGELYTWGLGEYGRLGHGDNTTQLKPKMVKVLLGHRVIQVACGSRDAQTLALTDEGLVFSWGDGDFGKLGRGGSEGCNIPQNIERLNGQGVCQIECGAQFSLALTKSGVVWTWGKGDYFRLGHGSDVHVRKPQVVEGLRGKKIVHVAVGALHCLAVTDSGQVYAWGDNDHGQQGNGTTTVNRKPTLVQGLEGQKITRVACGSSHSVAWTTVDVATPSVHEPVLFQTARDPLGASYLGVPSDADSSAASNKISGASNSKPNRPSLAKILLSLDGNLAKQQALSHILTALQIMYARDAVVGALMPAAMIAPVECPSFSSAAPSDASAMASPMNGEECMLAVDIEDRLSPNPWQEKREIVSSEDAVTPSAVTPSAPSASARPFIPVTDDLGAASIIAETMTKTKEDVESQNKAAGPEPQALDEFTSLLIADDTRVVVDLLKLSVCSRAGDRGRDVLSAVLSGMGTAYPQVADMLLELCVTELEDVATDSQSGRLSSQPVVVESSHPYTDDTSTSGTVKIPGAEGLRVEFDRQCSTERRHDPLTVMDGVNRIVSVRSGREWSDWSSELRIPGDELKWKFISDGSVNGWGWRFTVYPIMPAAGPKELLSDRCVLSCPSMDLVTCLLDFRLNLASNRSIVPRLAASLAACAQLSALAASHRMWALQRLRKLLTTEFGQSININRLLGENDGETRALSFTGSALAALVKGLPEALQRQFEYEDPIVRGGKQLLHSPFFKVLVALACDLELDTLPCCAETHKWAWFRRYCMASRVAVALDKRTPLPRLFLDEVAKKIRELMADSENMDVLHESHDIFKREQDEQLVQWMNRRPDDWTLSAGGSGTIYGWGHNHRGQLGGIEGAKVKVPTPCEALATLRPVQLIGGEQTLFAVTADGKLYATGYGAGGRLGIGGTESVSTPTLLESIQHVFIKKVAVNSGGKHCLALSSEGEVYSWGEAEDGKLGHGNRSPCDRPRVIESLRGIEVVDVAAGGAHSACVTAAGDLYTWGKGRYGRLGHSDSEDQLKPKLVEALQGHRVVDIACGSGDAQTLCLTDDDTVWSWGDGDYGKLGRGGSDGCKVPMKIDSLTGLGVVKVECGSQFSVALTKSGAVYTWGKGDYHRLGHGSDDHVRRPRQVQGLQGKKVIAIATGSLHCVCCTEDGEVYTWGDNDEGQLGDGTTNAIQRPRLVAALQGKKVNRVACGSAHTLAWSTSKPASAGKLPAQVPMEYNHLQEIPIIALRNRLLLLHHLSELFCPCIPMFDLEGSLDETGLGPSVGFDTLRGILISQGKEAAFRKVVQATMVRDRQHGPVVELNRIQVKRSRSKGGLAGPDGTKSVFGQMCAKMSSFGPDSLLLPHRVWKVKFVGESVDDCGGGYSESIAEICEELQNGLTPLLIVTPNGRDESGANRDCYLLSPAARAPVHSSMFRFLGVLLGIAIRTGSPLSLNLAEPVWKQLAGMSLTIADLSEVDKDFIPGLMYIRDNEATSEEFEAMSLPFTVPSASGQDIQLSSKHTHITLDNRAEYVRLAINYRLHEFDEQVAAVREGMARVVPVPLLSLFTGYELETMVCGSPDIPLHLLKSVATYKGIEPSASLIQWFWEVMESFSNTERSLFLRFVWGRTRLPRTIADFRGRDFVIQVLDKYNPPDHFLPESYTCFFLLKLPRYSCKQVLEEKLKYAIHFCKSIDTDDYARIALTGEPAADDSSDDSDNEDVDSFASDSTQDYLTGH
UniProt P27694: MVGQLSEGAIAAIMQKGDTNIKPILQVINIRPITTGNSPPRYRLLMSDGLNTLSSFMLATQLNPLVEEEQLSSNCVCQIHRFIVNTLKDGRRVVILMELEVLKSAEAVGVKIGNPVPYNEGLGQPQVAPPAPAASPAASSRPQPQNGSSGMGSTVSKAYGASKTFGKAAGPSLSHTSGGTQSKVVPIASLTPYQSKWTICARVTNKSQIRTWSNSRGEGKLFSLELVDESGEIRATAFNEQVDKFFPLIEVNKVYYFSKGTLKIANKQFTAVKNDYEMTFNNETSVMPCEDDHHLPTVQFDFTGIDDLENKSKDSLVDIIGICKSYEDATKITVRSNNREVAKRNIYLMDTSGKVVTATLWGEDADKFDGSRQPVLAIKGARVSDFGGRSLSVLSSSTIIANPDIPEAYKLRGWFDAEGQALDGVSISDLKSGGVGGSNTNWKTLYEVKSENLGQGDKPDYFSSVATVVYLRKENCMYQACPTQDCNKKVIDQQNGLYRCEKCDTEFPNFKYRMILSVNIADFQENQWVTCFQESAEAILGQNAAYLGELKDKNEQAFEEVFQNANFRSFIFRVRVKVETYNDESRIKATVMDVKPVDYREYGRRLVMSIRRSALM

B1: RMI1 (protein, UniProt Q9H9A7 1-625)
chain: MNVTSIALRAETWLLAAWHVKVPPMWLEACINWIQEENNNVNLSQAQMNKQVFEQWLLTDLRDLEHPLLPDGILEIPKGELNGFYALQINSLVDVSQPAYSQIQKLRGKNTTNDLVTAEAQVTPKPWEAKPSRMLMLQLTDGIVQIQGMEYQPIPILHSDLPPGTKILIYGNISFRLGVLLLKPENVKVLGGEVDALLEEYAQEKVLARLIGEPDLVVSVIPNNSNENIPRVTDVLDPALGPSDEELLASLDENDELTANNDTSSERCFTTGSSSNTIPTRQSSFEPEFVISPRPKEEPSNLSIHVMDGELDDFSLEEALLLEETVQKEQMETKELQPLTFNRNADRSIERFSHNPNTTNNFSLTCKNGNNNWSEKNVSEQMTNEDKSFGCPSVRDQNRSIFSVHCNVPLAHDFTNKEKNLETDNKIKQTSSSDSHSLNNKILNREVVNYVQKRNSQISNENDCNLQSCSLRSSENSINLSIAMDLYSPPFVYLSVLMASKPKEVTTVKVKAFIVTLTGNLSSSGGIWSITAKVSDGTAYLDVDFVDEILTSLIGFSVPEMKQSKKDPLQYQKFLEGLQKCQRDLIDLCCLMTISFNPSLSKAMVLALQDVNMEHLENLKKRLNK

biological target: HERC2 (human (endogenous in HeLa and HCT116)) (UniProt O95714); assay: affinity purification with mass spectrometry

Molecule	binding
RPA1 (from UniProt P27694 1-616)	binds
BLM (from UniProt P54132 1-1417)	binds
B1	binds
